{"source": "PubChem BioAssay AID1053208 – Peter MacCallum Cancer Centre | 2014", "screen": "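Find knock-downs that sensitise mouse osteosarcoma cells to doxorubicin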 (primary screen)", "cell system": "mouse osteosarcoma cells, early-passage culture from an engineered mouse model of fibroblastic bone tumour", "reagents": "siRNA pool against mouse genes, 40 nM", "duration": "about 120 h (48 h before drug, then 72 h with drug)", "treatment": "doxorubicin 100 nM for 72 h, roughly 30-40% inhibitory dose", "measurement": "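Luminescent ATP signal taken as viability with or without 100 nM doxorubicin for 72 h; mean of two wells set against non-targeting siRNA and turned into robust z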", "direction": "viability z-score with doxorubicin: higher = more viable cells under doxorubicin; viability z-score without drug: higher = more viable cells with knock-down alone", "rule for the call": "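Called active if knock-down leaves viability unchanged without drug (z within -2 to 2) but lowers it with doxorubicin (z at or under -2)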", "note": "The whole screen tested about 17,000 reagents; shown is a random part of them. 788 of them (4.7%) count as active. 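Calls rest on z-score classes alone; an extra cut-off of viability at most 70% of control was not applied to them.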 Unmarked entries are inactive. Not all columns of the deposit are shown."}
{"gene symbol": "Slc25a40", "combined z-score class": "no change with or without drug", "viability z-score with doxorubicin": -0.22, "viability z-score without drug": 1.01}
{"gene symbol": "Dpep1", "combined z-score class": "no change with or without drug", "viability z-score with doxorubicin": 1.46, "viability z-score without drug": -0.17}
{"gene symbol": "Or5g26", "combined z-score class": "no change with or without drug", "viability z-score with doxorubicin": -1.12, "viability z-score without drug": -1.35}
{"gene symbol": "Scrn2", "combined z-score class": "no change with or without drug", "viability z-score with doxorubicin": 0.22, "viability z-score without drug": -0.17}
{"gene symbol": "Dlx1", "combined z-score class": "no change with or without drug", "viability z-score with doxorubicin": -0.56, "viability z-score without drug": 1.01}
{"gene symbol": "Ormdl2", "combined z-score class": "low cell count with doxorubicin only (active)", "viability z-score with doxorubicin": -2.14, "viability z-score without drug": -0.84}
{"gene symbol": "Siglecl2", "combined z-score class": "no change with or without drug", "viability z-score with doxorubicin": -0.56, "viability z-score without drug": 1.52}
{"gene symbol": "Luc7l2", "combined z-score class": "no change with or without drug", "viability z-score with doxorubicin": -1.8, "viability z-score without drug": -1.18}
{"gene symbol": "Zng1", "combined z-score class": "no change with or without drug", "viability z-score with doxorubicin": 1.01, "viability z-score without drug": 0}
{"gene symbol": "Tbc1d5", "combined z-score class": "no change with or without drug", "viability z-score with doxorubicin": 0.9, "viability z-score without drug": 0.34}
{"gene symbol": "Rpf1", "combined z-score class": "low cell count without drug only", "viability z-score with doxorubicin": -1.35, "viability z-score without drug": -4.22}
{"gene symbol": "Abcg8", "combined z-score class": "no change with or without drug", "viability z-score with doxorubicin": 0.45, "viability z-score without drug": 0.84}
{"gene symbol": "Emc3", "combined z-score class": "no change with or without drug", "viability z-score with doxorubicin": -0.79, "viability z-score without drug": -1.85}
{"gene symbol": "Pip4p2", "combined z-score class": "no change with or without drug", "viability z-score with doxorubicin": -0.67, "viability z-score without drug": 0.17}
{"gene symbol": "Vmn2r26", "combined z-score class": "no change with or without drug", "viability z-score with doxorubicin": -1.12, "viability z-score without drug": 1.01}
{"gene symbol": "Flnb", "combined z-score class": "no change with or without drug", "viability z-score with doxorubicin": -0.79, "viability z-score without drug": 0.84}
{"gene symbol": "Map2k1", "combined z-score class": "no change with or without drug", "viability z-score with doxorubicin": 0.34, "viability z-score without drug": 0.51}
{"gene symbol": "Crhbp", "combined z-score class": "no change with or without drug", "viability z-score with doxorubicin": -0.67, "viability z-score without drug": 0.17}
{"gene symbol": "Nkx2-2", "combined z-score class": "no change with or without drug", "viability z-score with doxorubicin": 0.67, "viability z-score without drug": -0.67}
{"gene symbol": "Bccip", "combined z-score class": "no change with or without drug", "viability z-score with doxorubicin": -1.57, "viability z-score without drug": -1.18}
{"gene symbol": "Sp110", "combined z-score class": "no change with or without drug", "viability z-score with doxorubicin": -0.9, "viability z-score without drug": 0.51}
{"gene symbol": "Lama2", "combined z-score class": "high cell count without drug only", "viability z-score with doxorubicin": 0.56, "viability z-score without drug": 2.7}
{"gene symbol": "Acvr1", "combined z-score class": "no change with or without drug", "viability z-score with doxorubicin": 0, "viability z-score without drug": -0.51}
{"gene symbol": "Pdlim1", "combined z-score class": "no change with or without drug", "viability z-score with doxorubicin": 0.9, "viability z-score without drug": 1.18}
{"gene symbol": "Apob", "combined z-score class": "no change with or without drug", "viability z-score with doxorubicin": -0.56, "viability z-score without drug": 0.84}
{"gene symbol": "Tmem63a", "combined z-score class": "no change with or without drug", "viability z-score with doxorubicin": 0.9, "viability z-score without drug": -0.67}
{"gene symbol": "Atp5mj", "combined z-score class": "no change with or without drug", "viability z-score with doxorubicin": 1.12, "viability z-score without drug": 0.51}
{"gene symbol": "Dnd1", "combined z-score class": "no change with or without drug", "viability z-score with doxorubicin": 1.01, "viability z-score without drug": 1.85}
{"gene symbol": "Ctla4", "combined z-score class": "no change with or without drug", "viability z-score with doxorubicin": 0.67, "viability z-score without drug": -0.51}
{"gene symbol": "Arl5a", "combined z-score class": "no change with or without drug", "viability z-score with doxorubicin": -1.69, "viability z-score without drug": -0.51}
{"gene symbol": "Rps3", "combined z-score class": "low cell count with doxorubicin only (active)", "viability z-score with doxorubicin": -4.27, "viability z-score without drug": -1.69}
{"gene symbol": "Frmd6", "combined z-score class": "no change with or without drug", "viability z-score with doxorubicin": 0.34, "viability z-score without drug": 0.17}
{"gene symbol": "Srp54a", "combined z-score class": "no change with or without drug", "viability z-score with doxorubicin": -0.67, "viability z-score without drug": -1.69}
{"gene symbol": "Ppara", "combined z-score class": "no change with or without drug", "viability z-score with doxorubicin": -0.34, "viability z-score without drug": 0.17}
{"gene symbol": "Cd200r1l", "combined z-score class": "no change with or without drug", "viability z-score with doxorubicin": 0.67, "viability z-score without drug": -1.85}
{"gene symbol": "Sstr2", "combined z-score class": "no change with or without drug", "viability z-score with doxorubicin": -1.12, "viability z-score without drug": -1.18}

Copied from the list.
Result of Emc3 under “viability z-score without drug”: -1.85
Arl5a, combined z-score class → no change with or without drug
